## Screening data

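Vaccinia-infected cells with a two-color viral stage reporter; Venus fluorescence read on a plate reader; the cell line is not named here; timing not stated here. The test concentration is not given here. Percent change in Venus reporter signal; lower (more negative) values mean stronger inhibition of that viral stage.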

Values are in %. The controls that fix the scale are not given here. Common to all entries: measured here: Venus reporter, other viral stage. Part of the compounds only, not a random draw; the main read-out is not listed here.

{"compound": "C[C@H]1CN([C@@H](C)CO)C(=O)c2cccc(NC(=O)Nc3ccccc3)c2O[C@H]1CN(C)S(=O)(=O)c1ccc(Cl)cc1", "activity change (Venus) (%)": "-30.35"}
{"compound": "C[C@@H]1CCCCO[C@H](CN(C)Cc2ccc(C(F)(F)F)cc2)[C@H](C)CN([C@@H](C)CO)C(=O)c2cc(NC(=O)CCC(F)(F)F)ccc2O1", "activity change (Venus) (%)": "-58.69"}
{"compound": "Cc1ccc(-c2ccc3c(c2)O[C@@H](CN(C)Cc2cccnc2)[C@H](C)CN([C@H](C)CO)S3(=O)=O)cc1", "activity change (Venus) (%)": "-39.83"}
{"compound": "C[C@H]1CN([C@@H](C)CO)C(=O)c2cc(C#CCc3ccccc3)cnc2O[C@H]1CN(C)Cc1cccc(F)c1", "activity change (Venus) (%)": "-30.4"}
{"compound": "O=S(=O)(c1ccc(F)cc1)N1CCCCN2[C@@H](CO)[C@H](c3ccc(-c4ccccc4)cc3)[C@@H]2C1", "activity change (Venus) (%)": "-42.04"}
{"compound": "COc1ccc(S(=O)(=O)Nc2ccc3c(c2)C(=O)N([C@@H](C)CO)C[C@H](C)[C@@H](CN(C)C(=O)NC2CCCCC2)OCCCC[C@H](C)O3)cc1", "activity change (Venus) (%)": "-41.18"}
{"compound": "C[C@@H]1CN([C@H](C)CO)C(=O)c2cc(NS(=O)(=O)c3ccc(F)cc3)ccc2O[C@@H](C)CCCCO[C@H]1CN(C)Cc1ccccc1", "activity change (Venus) (%)": "-51.95"}
{"compound": "C[C@H](CO)N1C[C@H](C)[C@@H](CN(C)S(=O)(=O)c2cccs2)OCCCC[C@H](C)Oc2ccc(NS(=O)(=O)c3ccc(Cl)cc3)cc2C1=O", "activity change (Venus) (%)": "-25.6"}
{"compound": "C[C@H]1CN([C@@H](C)CO)C(=O)c2cccc(NC(=O)Nc3ccc4c(c3)OCO4)c2O[C@H]1CN(C)C(=O)NC1CCCCC1", "activity change (Venus) (%)": "-41.11"}
{"compound": "Cc1noc(C)c1S(=O)(=O)N(C)C[C@H]1OCCCC[C@@H](C)Oc2ccc(NS(=O)(=O)c3ccccc3)cc2C(=O)N([C@@H](C)CO)C[C@H]1C", "activity change (Venus) (%)": "-43.04"}
{"compound": "C[C@H]1CN([C@@H](C)CO)S(=O)(=O)c2ccc(C#Cc3ccc(F)cc3)cc2O[C@@H]1CN(C)C(=O)c1ccccn1", "activity change (Venus) (%)": "-42.23"}
{"compound": "COc1ccc(CN(C)C[C@@H]2Oc3c(NC(=O)Nc4cccc5ccccc45)cccc3C(=O)N([C@@H](C)CO)C[C@@H]2C)cc1", "activity change (Venus) (%)": "-25.21"}
{"compound": "O=C(C[C@@H]1CC[C@H](NC(=O)c2ccccc2)[C@H](CO)O1)Nc1ccc(-c2ccccc2)cc1", "activity change (Venus) (%)": "-51.31"}
{"compound": "C[C@@H]1CCCCO[C@@H](CN(C)S(=O)(=O)c2ccccc2)[C@H](C)CN([C@@H](C)CO)C(=O)c2cc(NC(=O)c3ccccc3)ccc2O1", "activity change (Venus) (%)": "-29.04"}
{"compound": "C[C@H]1CN([C@@H](C)CO)C(=O)c2cc(NC(=O)Nc3ccc(C(F)(F)F)cc3)ccc2O[C@H]1CN(C)Cc1ccc(Oc2ccccc2)cc1", "activity change (Venus) (%)": "-53.62"}
{"compound": "N#Cc1ccc(-c2ccc([C@H]3[C@H](CO)N4CCCCN(S(=O)(=O)c5ccccc5)C[C@@H]34)cc2)cc1", "activity change (Venus) (%)": "-32"}
{"compound": "COc1ccccc1CNC(=O)C[C@@H]1CC[C@@H]2[C@H](COC[C@@H](O)CN2C(=O)Nc2ccc(C(F)(F)F)cc2)O1", "activity change (Venus) (%)": "-31.95"}
{"compound": "COc1ccc(S(=O)(=O)N(C)C[C@@H]2Oc3ncc(C#Cc4ccccc4)cc3C(=O)N([C@H](C)CO)C[C@@H]2C)cc1", "activity change (Venus) (%)": "-46.76"}
{"compound": "C[C@H]1CN([C@@H](C)CO)S(=O)(=O)c2ccc(/C=C/c3ccccc3)cc2O[C@H]1CN(C)CC1CC1", "activity change (Venus) (%)": "-42.39"}
{"compound": "CCNC(=O)c1cc2c(c(-c3cccc(-c4cccc(OC)c4)c3)n1)[C@H](CCO)N([S@@](=O)C(C)(C)C)C2", "activity change (Venus) (%)": "-16.81"}
{"compound": "O=C(C[C@@H]1CC[C@H]2[C@@H](COC[C@@H](O)CN2S(=O)(=O)c2ccc(F)cc2)O1)NCc1ccc(Cl)c(Cl)c1", "activity change (Venus) (%)": "-40.52"}
{"compound": "CCCC#Cc1ccc([C@@H]2[C@@H](CO)N3CCCCN(C(=O)c4ccc5c(c4)OCO5)C[C@@H]23)cc1", "activity change (Venus) (%)": "-45.37"}
{"compound": "Cc1cccc(S(=O)(=O)N2C[C@H](O)COC[C@@H]3O[C@H](CC(=O)Nc4ccc(-c5ccccc5)cc4)CC[C@H]32)c1", "activity change (Venus) (%)": "-45.16"}

The last 2 entries again:

| compound | activity change (Venus) (%) |
|---|---|
| `CCCC#Cc1ccc([C@@H]2[C@@H](CO)N3CCCCN(C(=O)c4ccc5c(c4)OCO5)C[C@@H]23)cc1` | -45.37 |
| `Cc1cccc(S(=O)(=O)N2C[C@H](O)COC[C@@H]3O[C@H](CC(=O)Nc4ccc(-c5ccccc5)cc4)CC[C@H]32)c1` | -45.16 |

Source: PubChem BioAssay AID1053133 (Broad Institute, 2014).